Results as given in publication PMC5841321.
Results are given in words; binding and its absence hold for the method and conditions named. Binding seen in cells or lysates may run through a third protein. Here binding means that the protein was enriched with, or labelled near, the bait; the list need not be complete.

T1: E3 ubiquitin-protein ligase Midline-1 (UniProt O15344)
T1 sequence: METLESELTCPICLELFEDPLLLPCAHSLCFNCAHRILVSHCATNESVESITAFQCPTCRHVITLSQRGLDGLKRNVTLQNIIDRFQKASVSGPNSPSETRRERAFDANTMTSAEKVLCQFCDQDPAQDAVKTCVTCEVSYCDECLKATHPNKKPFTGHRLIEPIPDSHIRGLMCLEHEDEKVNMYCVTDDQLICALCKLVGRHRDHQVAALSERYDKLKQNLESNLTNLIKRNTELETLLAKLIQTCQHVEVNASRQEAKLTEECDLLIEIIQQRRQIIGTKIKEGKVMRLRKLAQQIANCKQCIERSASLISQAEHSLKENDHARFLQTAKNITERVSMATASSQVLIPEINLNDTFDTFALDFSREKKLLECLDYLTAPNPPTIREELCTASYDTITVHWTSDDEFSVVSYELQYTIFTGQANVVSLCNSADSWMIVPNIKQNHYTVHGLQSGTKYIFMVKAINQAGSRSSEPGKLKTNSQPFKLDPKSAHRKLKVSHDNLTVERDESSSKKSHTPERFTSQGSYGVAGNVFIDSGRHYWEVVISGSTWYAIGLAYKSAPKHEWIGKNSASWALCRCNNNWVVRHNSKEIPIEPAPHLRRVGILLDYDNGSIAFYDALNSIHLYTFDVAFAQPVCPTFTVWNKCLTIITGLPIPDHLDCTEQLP


What follows are binders tested against T1, E3 ubiquitin-protein ligase Midline-1 (assay: affinity purification with mass spectrometry; MID1-FLAG expressed in HEK293T, lysate in TKM buffer (20 mM Tris pH 7.4, 100 mM KCl, 5 mM MgCl2, 0.5% NP40, 1 mM DTT), anti-FLAG M1 agarose overnight at 4 °C, 6 washes; untransfected cells as control; Q-Exactive, MaxQuant, 1% FDR).

| Binder | binding |
| --- | --- |
| Ribose-phosphate pyrophosphokinase 1 (protein, UniProt P60891 1-318) MPNIKIFSGSSHQDLSQKIADRLGLELGKVVTKKFSNQETCVEIGESVRGEDVYIVQSGCGEINDNLMELLIMINACKIASASRVTAVIPCFPYARQDKKDKSRAPISAKLVANMLSVAGADHIITMDLHASQIQGFFDIPVDNLYAEPAVLKWIRENISEWRNCTIVSPDAGGAKRVTSIADRLNVDFALIHKERKKANEVDRMVLVGDVKDRVAILVDDMADTCGTICHAADKLLSAGATRVYAILTHGIFSGPAISRINNACFEAVVVTNTIPQEDKMKHCSKIQVIDISMILAEAIRRTHNGESVSYLFSHVPL | binds |
| U4/U6 small nuclear ribonucleoprotein Prp3 (protein, UniProt O43395 1-683) MALSKRELDELKPWIEKTVKRVLGFSEPTVVTAALNCVGKGMDKKKAADHLKPFLDDSTLRFVDKLFEAVEEGRSSRHSKSSSDRSRKRELKEVFGDDSEISKESSGVKKRRIPRFEEVEEEPEVIPGPPSESPGMLTKLQIKQMMEAATRQIEERKKQLSFISPPTPQPKTPSSSQPERLPIGNTIQPSQAATFMNDAIEKARKAAELQARIQAQLALKPGLIGNANMVGLANLHAMGIAPPKVELKDQTKPTPLILDEQGRTVDATGKEIELTHRMPTLKANIRAVKREQFKQQLKEKPSEDMESNTFFDPRVSIAPSQRQRRTFKFHDKGKFEKIAQRLRTKAQLEKLQAEISQAARKTGIHTSTRLALIAPKKELKEGDIPEIEWWDSYIIPNGFDLTEENPKREDYFGITNLVEHPAQLNPPVDNDTPVTLGVYLTKKEQKKLRRQTRREAQKELQEKVRLGLMPPPEPKVRISNLMRVLGTEAVQDPTKVEAHVRAQMAKRQKAHEEANAARKLTAEQRKVKKIKKLKEDISQGVHISVYRVRNLSNPAKKFKIEANAGQLYLTGVVVLHKDVNVVVVEGGPKAQKKFKRLMLHRIKWDEQTSNTKGDDDEESDEEAVKKTNKCVLVWEGTAKDRSFGEMKFKQCPTENMAREHFKKHGAEHYWDLALSESVLESTD | binds |
| Proliferation-associated protein 2G4 (protein, UniProt Q9UQ80 1-394) MSGEDEQQEQTIAEDLVVTKYKMGGDIANRVLRSLVEASSSGVSVLSLCEKGDAMIMEETGKIFKKEKEMKKGIAFPTSISVNNCVCHFSPLKSDQDYILKEGDLVKIDLGVHVDGFIANVAHTFVVDVAQGTQVTGRKADVIKAAHLCAEAALRLVKPGNQNTQVTEAWNKVAHSFNCTPIEGMLSHQLKQHVIDGEKTIIQNPTDQQKKDHEKAEFEVHEVYAVDVLVSSGEGKAKDAGQRTTIYKRDPSKQYGLKMKTSRAFFSEVERRFDAMPFTLRAFEDEKKARMGVVECAKHELLQPFNVLYEKEGEFVAQFKFTVLLMPNGPMRITSGPFEPDLYKSEMEVQDAELKALLQSSASRKTQKKKKKKASKTAENATSGETLEENEAGD | binds |
| Programmed cell death protein 4 (protein, UniProt Q53EL6 1-469) MDVENEQILNVNPADPDNLSDSLFSGDEENAGTEEIKNEINGNWISASSINEARINAKAKRRLRKNSSRDSGRGDSVSDSGSDALRSGLTVPTSPKGRLLDRRSRSGKGRGLPKKGGAGGKGVWGTPGQVYDVEEVDVKDPNYDDDQENCVYETVVLPLDERAFEKTLTPIIQEYFEHGDTNEVAEMLRDLNLGEMKSGVPVLAVSLALEGKASHREMTSKLLSDLCGTVMSTTDVEKSFDKLLKDLPELALDTPRAPQLVGQFIARAVGDGILCNTYIDSYKGTVDCVQARAALDKATVLLSMSKGGKRKDSVWGSGGGQQSVNHLVKEIDMLLKEYLLSGDISEAEHCLKELEVPHFHHELVYEAIIMVLESTGESTFKMILDLLKSLWKSSTITVDQMKRGYERIYNEIPDINLDVPHSYSVLERFVEECFQAGIISKQLRDLCPSRGRKRFVSEGDGGRLKPESY | binds |
| Ribose-phosphate pyrophosphokinase 2 (protein, UniProt P11908 1-318) MPNIVLFSGSSHQDLSQRVADRLGLELGKVVTKKFSNQETSVEIGESVRGEDVYIIQSGCGEINDNLMELLIMINACKIASSSRVTAVIPCFPYARQDKKDKSRAPISAKLVANMLSVAGADHIITMDLHASQIQGFFDIPVDNLYAEPAVLQWIRENIAEWKNCIIVSPDAGGAKRVTSIADRLNVEFALIHKERKKANEVDRMVLVGDVKDRVAILVDDMADTCGTICHAADKLLSAGATKVYAILTHGIFSGPAISRINNAAFEAVVVTNTIPQEDKMKHCTKIQVIDISMILAEAIRRTHNGESVSYLFSHVPL | binds |
| Ribosome biogenesis protein BRX1 homolog (protein, UniProt Q8TDN6 1-353) MAATKRKRRGGFAVQAKKPKRNEIDAEPPAKRHATAEEVEEEERDRIPGPVCKGKWKNKERILIFSSRGINFRTRHLMQDLRMLMPHSKADTKMDRKDKLFVINEVCEMKNCNKCIYFEAKKKQDLYMWLSNSPHGPSAKFLVQNIHTLAELKMTGNCLKGSRPLLSFDPAFDELPHYALLKELLIQIFSTPRYHPKSQPFVDHVFTFTILDNRIWFRNFQIIEEDAALVEIGPRFVLNLIKIFQGSFGGPTLYENPHYQSPNMHRRVIRSITAAKYREKQQVKDVQKLRKKEPKTLLPHDPTADVFVTPAEEKPIEIQWVKPEPKVDLKARKKRIYKRQRKMKQRMDSGKTK | binds |
| U4/U6 small nuclear ribonucleoprotein Prp4 (protein, UniProt O43172 1-522) MASSRASSTQATKTKAPDDLVAPVVKKPHIYYGSLEEKERERLAKGESGILGKDGLKAGIEAGNINITSGEVFEIEEHISERQAEVLAEFERRKRARQINVSTDDSEVKACLRALGEPITLFGEGPAERRERLRNILSVVGTDALKKTKKDDEKSKKSKEEYQQTWYHEGPNSLKVARLWIANYSLPRAMKRLEEARLHKEIPETTRTSQMQELHKSLRSLNNFCSQIGDDRPISYCHFSPNSKMLATACWSGLCKLWSVPDCNLLHTLRGHNTNVGAIVFHPKSTVSLDPKDVNLASCAADGSVKLWSLDSDEPVADIEGHTVRVARVMWHPSGRFLGTTCYDRSWRLWDLEAQEEILHQEGHSMGVYDIAFHQDGSLAGTGGLDAFGRVWDLRTGRCIMFLEGHLKEIYGINFSPNGYHIATGSGDNTCKVWDLRQRRCVYTIPAHQNLVTGVKFEPIHGNFLLTGAYDNTAKIWTHPGWSPLKTLAGHEGKVMGLDISSDGQLIATCSYDRTFKLWMAE | binds |
| Pre-mRNA-processing factor 6 (protein, UniProt O94906 1-941) MNKKKKPFLGMPAPLGYVPGLGRGATGFTTRSDIGPARDANDPVDDRHAPPGKRTVGDQMKKNQAADDDDEDLNDTNYDEFNGYAGSLFSSGPYEKDDEEADAIYAALDKRMDERRKERREQREKEEIEKYRMERPKIQQQFSDLKRKLAEVTEEEWLSIPEVGDARNKRQRNPRYEKLTPVPDSFFAKHLQTGENHTSVDPRQTQFGGLNTPYPGGLNTPYPGGMTPGLMTPGTGELDMRKIGQARNTLMDMRLSQVSDSVSGQTVVDPKGYLTDLNSMIPTHGGDINDIKKARLLLKSVRETNPHHPPAWIASARLEEVTGKLQVARNLIMKGTEMCPKSEDVWLEAARLQPGDTAKAVVAQAVRHLPQSVRIYIRAAELETDIRAKKRVLRKALEHVPNSVRLWKAAVELEEPEDARIMLSRAVECCPTSVELWLALARLETYENARKVLNKARENIPTDRHIWITAAKLEEANGNTQMVEKIIDRAITSLRANGVEINREQWIQDAEECDRAGSVATCQAVMRAVIGIGIEEEDRKHTWMEDADSCVAHNALECARAIYAYALQVFPSKKSVWLRAAYFEKNHGTRESLEALLQRAVAHCPKAEVLWLMGAKSKWLAGDVPAARSILALAFQANPNSEEIWLAAVKLESENDEYERARRLLAKARSSAPTARVFMKSVKLEWVQDNIRAAQDLCEEALRHYEDFPKLWMMKGQIEEQKEMMEKAREAYNQGLKKCPHSTPLWLLLSRLEEKIGQLTRARAILEKSRLKNPKNPGLWLESVRLEYRAGLKNIANTLMAKALQECPNSGILWSEAIFLEARPQRRTKSVDALKKCEHDPHVLLAVAKLFWSQRKITKAREWFHRTVKIDSDLGDAWAFFYKFELQHGTEEQQEEVRKRCESAEPRHGELWCAVSKDIANWQKKIGDILRLVAGRIKNTF | binds |
